Laboratory results reported in US20230118955A1 (priority 2020, published 2023).
For at least one compound, name, drawing or mass did not settle the structure.

System: 3CLpro protease
Assay type: biochemical, SARS-CoV

**Q.** How did the “inhibition of 3CLpro protease activity (cleavage of pNA substrate)” value turn out when `O=c1cc(-c2ccccc2)oc2cc(O)cc(O)c12` [chrysin] was run?
**A.** inhibit activity of 3CLpro protease
